From US20120022159A1, “AMPHIPHILIC STAR-LIKE OR SCORPION-LIKE MACROMOLECULES, VARIOUS COMPOSITIONS AND USES THEREOF” (priority 2004, published 2012)
Some entries share one result that the patent states for a list of compounds. At least one structure is not confirmed: it was looked up by name or label, or the drawing left a doubt.

Test system: human umbilical vein endothelial cells (HUVECs)
Test: Uptake of dye-loaded AScMs in HUVEC monitored by cellular accumulation of fluorescent dyes
Assay type: cell-based
Details: time points 15-120 minutes
Method: Methods Amphiphilic scorpion-like macromolecules (AScMs) are block copolymers that form micelles at concentrations above their CMC (5×10^−7 M). The uptake of AScMs was investigated in human umbilical vein endothelial cells (HUVECs) by monitoring cellular accumulation of the fluorescent dyes (R110, R123 and LY, respectively). Briefly, fluorescent dyes were added to AScMs solutions (0.0001-1 mM) and incubated at 37° C. for at least 6 hours prior to cell incubation. After determination of R110, R123 and LY partitioning into the AScMs micelles, dye-loaded AScMs were incubated with HUVEC. Uptake of dye-loaded AScMs was investigated as a function of time (15, 30, 60, 90 and 120 minutes) and AScMs concentration (0.0001-1 mM). Furthermore, intracellular distribution and localization of dye-loaded AScMs in HUVEC was investigated using confocal microscope. […] The decreased accumulation of R110, R123 and LY in HUVEC monolayers was inversely correlated with the extent of their partitioning into AScMs. Uptake of R110, R123 and LY-loaded micelles was also time-dependent. […] Furthermore, confocal microscopy studies confirmed increased fluorescence activity in the cells with increase in the incubation time. […] Thus, AScMs can be used to localize therapeutic compounds into cells, for example, to achieve a sustained therapeutic effect.

Compound | time at which uptake of dye-loaded micelles was first seen
NNC(=O)NN1C(=O)c2cc(S(=O)(=O)[O-])cc3c(N)c(S(=O)(=O)[O-])cc(c23)C1=O.[Li+].[Li+] [LY] | ≤ 15 min
COC(=O)c1ccccc1-c1c2ccc(N)cc2[o+]c2cc(N)ccc12 [R123] | ≤ 15 min
